Data source: PubChem BioAssay AID1053208 (Peter MacCallum Cancer Centre, 2014)
The whole screen tested about 17,000 reagents; below is a random part of them. 788 of them (4.7%) were called active. 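Calls rest on z-score classes alone; an extra cut-off of viability at most 70% of control was not applied to them.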 Entries without a mark were called inactive.

- Purpose: 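Synthetic lethal interactions between gene loss and doxorubicin in osteosarcoma cells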 (primary screen)
- System: mouse osteosarcoma cells, early-passage culture from an engineered mouse model of fibroblastic bone tumour
- Reagents: siRNA pool against mouse genes, 40 nM
- Timing: about 120 h (48 h before drug, then 72 h with drug)
- Treatment: doxorubicin 100 nM for 72 h, roughly 30-40% inhibitory dose
- Measured: 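Viability read as ATP luminescence after 72 h of 100 nM doxorubicin or none, duplicate wells averaged, scaled to non-targeting siRNA, then expressed as robust z-scores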
- Scale: viability z-score with doxorubicin and doxorubicin viability vs non-targeting: higher = more viable cells under doxorubicin; viability z-score without drug: higher = more viable cells with knock-down alone; z-score of drug to no-drug ratio: higher = less drug sensitisation by knock-down
- Rule for the call: 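a pool counts as active when its viability z-score with doxorubicin is -2 or below and its z-score without drug lies between -2 and 2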

The first 4 entries, to show the layout:
no.	gene	combined z-score class	viability z-score with doxorubicin	viability z-score without drug	z-score of drug to no-drug ratio	doxorubicin viability vs non-targeting
1	Defb9 (GeneID 246079)	no change with or without drug	0.56	0.84	0.11	0.99
2	Eppin (GeneID 75526)	no change with or without drug	0.79	1.52	-0.11	1.01
3	Kcnn2 (GeneID 140492)	low cell count with doxorubicin only (active)	-2.36	-0.84	-1.91	0.73
4	Foxf1 (GeneID 15227)	high cell count without drug only	0.56	2.36	-0.79	0.99

The list itself, from the start:
no.	gene	combined z-score class	viability z-score with doxorubicin	viability z-score without drug	z-score of drug to no-drug ratio	doxorubicin viability vs non-targeting
1	Defb9 (GeneID 246079)	no change with or without drug	0.56	0.84	0.11	0.99
2	Eppin (GeneID 75526)	no change with or without drug	0.79	1.52	-0.11	1.01
3	Kcnn2 (GeneID 140492)	low cell count with doxorubicin only (active)	-2.36	-0.84	-1.91	0.73
4	Foxf1 (GeneID 15227)	high cell count without drug only	0.56	2.36	-0.79	0.99
5	Msantd3 (GeneID 66665)	no change with or without drug	-0.22	0.17	-0.22	0.92
6	Hsd17b1 (GeneID 15485)	no change with or without drug	0.9	0.17	0.9	1.02
7	Kcnmb1 (GeneID 16533)	no change with or without drug	-1.91	-0.84	-1.35	0.77
8	Rhbdl2 (GeneID 230726)	no change with or without drug	1.57	0.51	1.35	1.08
9	Bend6 (GeneID 320705)	no change with or without drug	0.45	1.01	-0.11	0.98
10	Mmp15 (GeneID 17388)	no change with or without drug	-0.9	-0.17	-0.79	0.86
11	Ctsz (GeneID 64138)	no change with or without drug	1.12	-0.51	1.69	1.04
12	Bnc2 (GeneID 242509)	no change with or without drug	-0.11	-0.17	0.11	0.93
13	Ccl28 (GeneID 56838)	no change with or without drug	-0.45	-0.17	-0.22	0.9
14	Pald1 (GeneID 27355)	no change with or without drug	0.22	-0.17	0.45	0.96
15	Asb8 (GeneID 78541)	no change with or without drug	-0.22	-1.18	0.79	0.92
16	Grpr (GeneID 14829)	high cell count with doxorubicin only	2.81	0.34	2.81	1.19
17	Ybx2 (GeneID 53422)	low cell count with doxorubicin only (active)	-2.25	-1.18	-1.57	0.74
18	Tollip (GeneID 54473)	no change with or without drug	-0.67	-0.84	0	0.88
19	Cbx3 (GeneID 12417)	no change with or without drug	-0.45	0.34	-0.56	0.9
20	Or5b95 (GeneID 258693)	no change with or without drug	-1.24	-1.52	-0.11	0.83
21	Rfx6 (GeneID 320995)	no change with or without drug	-0.11	0.67	-0.45	0.93
22	Prl8a1 (GeneID 73244)	no change with or without drug	0	0.17	0	0.94
23	A130004G07Rik (retired record) (GeneID 320687)	no change with or without drug	-1.12	-0.84	-0.56	0.84
24	Sema5b (GeneID 20357)	no change with or without drug	-0.22	0.67	-0.56	0.92
25	Tespa1 (GeneID 67596)	no change with or without drug	-1.24	-0.67	-0.79	0.83
26	Dusp12 (GeneID 80915)	no change with or without drug	0.56	0.84	0.11	0.99
27	Hps4 (GeneID 192232)	no change with or without drug	0.67	1.01	0.11	1
28	Pde6b (GeneID 18587)	no change with or without drug	-0.67	-0.51	-0.22	0.88
29	Or1s2 (GeneID 258991)	no change with or without drug	0.34	-0.84	1.12	0.97
30	Timp4 (GeneID 110595)	no change with or without drug	0.45	0.84	0	0.98
31	Oma1 (GeneID 67013)	no change with or without drug	-1.69	-0.84	-1.12	0.79
32	Zfp189 (GeneID 230162)	no change with or without drug	0.79	1.18	0.11	1.01
33	Casp8ap2 (GeneID 26885)	low cell count with doxorubicin only (active)	-2.02	-0.84	-1.57	0.76
34	Gas1 (GeneID 14451)	no change with or without drug	1.8	0.17	1.91	1.1
35	Ermap (GeneID 27028)	no change with or without drug	1.35	0	1.57	1.06
36	Or6c38 (GeneID 258863)	no change with or without drug	1.35	1.85	0.22	1.06
37	Mospd3 (GeneID 68929)	no change with or without drug	-1.57	-1.85	-0.34	0.8
38	Hspa4 (GeneID 15525)	no change with or without drug	-0.56	0.51	-0.79	0.89
39	Kcna10 (GeneID 242151)	no change with or without drug	-0.9	-0.84	-0.22	0.86
40	Prpf39 (GeneID 328110)	no change with or without drug	0.67	-0.84	1.46	1
41	6030452D12Rik (GeneID 330837)	no change with or without drug	0.45	1.52	-0.45	0.98
42	Fbxo43 (GeneID 78803)	high cell count without drug only	1.12	3.54	-0.9	1.04
43	Prkaca (GeneID 18747)	no change with or without drug	0.22	1.35	-0.56	0.96
44	Cnih1 (GeneID 12793)	no change with or without drug	-1.35	-0.17	-1.24	0.82
45	Fam149a (GeneID 212326)	no change with or without drug	1.57	0.17	1.69	1.08
46	Sft2d1 (GeneID 106489)	no change with or without drug	0.9	1.18	0.22	1.02
47	Rbmx (GeneID 19655)	no change with or without drug	-1.24	0.17	-1.35	0.83
48	Thsd1 (GeneID 56229)	high cell count with doxorubicin only	2.92	1.18	2.25	1.2
49	Dmkn (GeneID 73712)	no change with or without drug	0	0.17	0	0.94
50	Tfpi2 (GeneID 21789)	no change with or without drug	0.9	-0.51	1.46	1.02
